According to PubChem BioAssay AID1345085 (National Center for Advancing Translational Sciences (NCATS), 2018):
Inconclusive results, whose numbers are uncertain, are shown with a selection of clear calls. Potencies beside an inconclusive call are fits to weak or partial responses and may not hold up. Calls of active or inactive are those of the source. Calls follow the shape of the dose curve; as a rule, active = well fitted cell-killing curve with a large enough effect; inconclusive = small, poorly fitted or top-dose-only effect, or effect the other way; inactive = no such curve, though single readings can be large or run the other way.

Test system: JEG-3
Experiment: Confirmatory qHTS for gynecologic anti-cancer compounds from libraries of approved drugs and bioactive compounds; also: nearly all actives have a fitted effect of over 55% in size
Conditions: gynecologic cancer cell panel viability, ATPlite luminescence, 48 h; series mostly up to 57.6 µM; activity change, negative = viability loss: at the top concentration
Summary of the method: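 Viability is measured as ATP-dependent luciferase light using ATPlite, read 15 min after reagent addition at room temperature. Compounds, in DMSO, span 57.5 uM down to 0.977 nM over 11 threefold steps for 48 h.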
% is scaled to controls: 0 for no effect and ±100 for the full control effect; potency is read from the fitted curve at half-maximal effect.

SMILES | Potency | activity change, negative = viability loss
Cc1sc2c(c1C)C(c1ccc(Cl)cc1)=NC(CC(=O)OC(C)(C)C)c1nnc(C)n1-2 (stereo not drawn) | active: 1930 nM | –
O=C(O)Cc1ccccc1 | – | inactive: 3.89%
CCOc1ccccc1-n1c(C(C)N2CCN(C(=O)COc3ccc(Cl)cc3)CC2)nc2ccccc2c1=O (stereo not drawn) | active: 10900 nM | –
C[C@]12CC[C@H]3[C@@H](CCC4=CC(=O)CC[C@@H]43)[C@@H]1CC[C@@H]2OC(=O)CCc1ccccc1 | – | inactive: 10%
C[C@H]1CCC/C=C/C2C[C@H](O)C[C@H]2[C@H](O)/C=C/C(=O)O1 (stereo partly drawn) | active: 344 nM | –
C/C=C(/C)C(=O)O[C@H]1C(C)=C2[C@H]([C@@H]1OC(=O)CCCCCCC)[C@@](C)(OC(C)=O)C[C@H](OC(=O)CCC)[C@@]1(O)[C@H]2OC(=O)[C@@]1(C)O | active: 54.4 nM | –
CCNC(=O)C[C@@H]1N=C(c2ccc(Cl)cc2)c2cc(OC)ccc2-n2c(C)nnc21 | inconclusive: 6850 nM [cytotoxic, full curve] | –
CCN1CCN(C(=O)Cc2ccc(Nc3ncc(F)c(Nc4ccc(C(=O)Nc5ccccc5Cl)cc4)n3)cc2)CC1 | – | inactive: -5.82%
